# PubChem BioAssay AID1224830, NIAID – 2016
# Purpose: 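Genes whose knock-down alters the TNF-alpha reporter response to LPS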 (primary screen)
# System: human THP-1 monocytic leukaemia cells, TNF dual-luciferase reporter clone, PMA-differentiated to macrophage-like cells
# Reagent: siRNA pool against human genes, 50 nM
# Time to read-out: LPS for 4 h, given about 3 days after siRNA transfection
# Challenge: bacterial LPS (TLR4 ligand), 10 ng/ml
# Read-out: 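Ratio of firefly to renilla light, scaled to the plate median and expressed as a robust z-score per replicate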
# Reading the numbers: TNF reporter robust z-score: higher = stronger TNF reporter response to LPS
# Rule for the call: 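a well is active when its z-score exceeds 2.8 or falls below -1.5; control wells carry no call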
# Shown is one part, drawn at random, of about 18,000 reagents tested. About 2,900 of all reagents (16%) count as active. 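Calls are made per well; low scores hint the gene aids the LPS response, high scores that it dampens it.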 Repeated entries: four replicate wells of each siRNA pool.
target gene,TNF reporter robust z-score,call
CXXC4,-0.25,inactive
CXXC4,-0.38,inactive
CXXC4,-0.78,inactive
CXXC4,-0.14,inactive
FANK1,-0.55,inactive
FANK1,-0.09,inactive
FANK1,0.46,inactive
PLA2G2F,0.26,inactive
PLA2G2F,0.02,inactive
PLA2G2F,-0.22,inactive
PLA2G2F,-0.47,inactive
TSPAN32,-0.55,inactive
TSPAN32,0.67,inactive
TSPAN32,0.73,inactive
TSPAN32,0.93,inactive
FCGRT,-1.25,inactive
FCGRT,-0.58,inactive
FCGRT,-1.15,inactive
FCGRT,-1.01,inactive
INCENP,2.62,inactive
INCENP,-0.15,inactive
INCENP,-0.91,inactive
INCENP,-0.04,inactive
TNRC6C,1.78,inactive
TNRC6C,0.04,inactive
TNRC6C,-0.71,inactive
TNRC6C,-0.77,inactive
EVC,-0.38,inactive
EVC,-0.27,inactive
EVC,-0.51,inactive
EVC,0.86,inactive
GLO1,1.65,inactive
GLO1,2.19,inactive
GLO1,0.15,inactive
GLO1,1.8,inactive
HHIP,-0.74,inactive
HHIP,-0.22,inactive
HHIP,0.13,inactive
HHIP,-0.23,inactive
PIK3CB,8.51,active
PIK3CB,1,inactive
PIK3CB,-0.73,inactive
PIK3CB,0.59,inactive
DNAJC28,-0.04,inactive
DNAJC28,-0.09,inactive
DNAJC28,0.61,inactive
DNAJC28,0.31,inactive

6 of these entries, reformatted:
PIK3CB → TNF reporter robust z-score = 8.51; call = active
PIK3CB → TNF reporter robust z-score = 1; call = inactive
PIK3CB → TNF reporter robust z-score = -0.73; call = inactive
PIK3CB → TNF reporter robust z-score = 0.59; call = inactive
DNAJC28 → TNF reporter robust z-score = -0.04; call = inactive
DNAJC28 → TNF reporter robust z-score = -0.09; call = inactive
